# No constants are given. Whether binding was seen depends on the method and setting.
# B1: DLLBII56A09 (VHH, not shown: small tags and cut ends)
# VHH: EVQLVESGGGLVQPGGSLRLSCAASGFTFDDYAIGWFRQAPGKEPEGISCISSSGGITYYADSVKGRFTTSRDNAKNTVYLQMNSLKPEDTAVYYCATPGIAACRGIHYTGQGTQVTVSS
# B2: DLLBII101G08 (VHH)
# VHH: EVQLVESGGGLVQAGGSLRLSCAASGRTFSSYAMAWFRQAPGKEREFVAAIRWSGGTAYYADSVQGRFTISRDNAKNTVYLQMNSLKPEDTAVYYCANRAADTRLGPYEYDYWGQGTQVTVSS
# notes: also called DLLBII101G8; 101G8; not shown: C-terminal c-myc tag and His6 tag
# B3: DLLBII115A05 (VHH)
# VHH: EVQLVESGGGLVQPGGSLRLSCAASGFTFGSYDMSWVRRSPGKGPEWVSSINSGGGSTYYADFVKGRFTISRDNAKNTLYLQMNSLKPEDTAVYYCAADRYIRARQGDYWGAYEYDYWGQGTQVTVSS
# notes: also called DLLBII115A5; 115A5; not shown: C-terminal c-myc tag and His6 tag
# Experiments:
# [1] = target: human DLL4 deletion mutant hDLL4.1 (human); assay: Biacore, VHH on chip, deletion mutant injected
# [2] = target: mouse DLL4 deletion mutant mDLL4.8 (mouse); assay: Biacore, VHH on chip, deletion mutant injected
binding [1],binding [2],Binder
no binding (tested: 200 nM),no binding (tested: 200 nM),B1
no binding (tested: 200 nM),no binding (tested: 200 nM),B2
no binding (tested: 200 nM),no binding (tested: 200 nM),B3
